The other results are listed elsewhere or left out. At the low end of the ranking the order means little.

The test has as its target T1, PUM1 PUF domain R1-QFR R2-VFQ R6-SWD S863Q + R864F + Q867R + N899V + Y900F + N1043S + Y1044W + Q1047D (UniProt Q14671).
T1 sequence: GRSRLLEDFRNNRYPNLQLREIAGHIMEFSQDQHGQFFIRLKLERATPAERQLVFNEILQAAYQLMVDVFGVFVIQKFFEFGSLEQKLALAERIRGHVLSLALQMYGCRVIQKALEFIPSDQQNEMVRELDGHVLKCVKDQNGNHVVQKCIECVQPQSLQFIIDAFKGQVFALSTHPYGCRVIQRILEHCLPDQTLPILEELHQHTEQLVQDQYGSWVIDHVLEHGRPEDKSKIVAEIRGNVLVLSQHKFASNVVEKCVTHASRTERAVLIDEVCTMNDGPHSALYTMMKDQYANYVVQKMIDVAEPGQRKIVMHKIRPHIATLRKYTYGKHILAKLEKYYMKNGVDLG
The note with it: yeast three-hybrid, YBZ-1, SC-Leu-His + 0.5 mM 3-AT, 4 days.
As to “GGCUAGAACUAGUGGAUCCCCCGGCGCCCGGCGGCUCGAGCCCGGGUAAGGGAAGAUAGUCUGCAUGCCGCCGGGCGCCAUGCCUGCAGGUCGACUCUAGAAAACAUG”, the binding signal (log2 enrichment (interaction score)) is -6.17. Then “GGCUAGAACUAGUGGAUCCCCCGGCGCCCGGCGGCUCGAGCCCGGGUAAGUGUAGGUAGUCUGCAUGCCGCCGGGCGCCAUGCCUGCAGGUCGACUCUAGAAAACAUG”, with -4.67; and “GGCUAGAACUAGUGGAUCCCCCGGCGCCCGGCGGCUCGAGCCCGGGUAAGUGGUCGUAGUCUGCAUGCCGCCGGGCGCCAUGCCUGCAGGUCGACUCUAGAAAACAUG”, with -5.94; and “GGCUAGAACUAGUGGAUCCCCCGGCGCCCGGCGGCUCGAGCCCGGGUAAGUUGCUAUAGUCUGCAUGCCGCCGGGCGCCAUGCCUGCAGGUCGACUCUAGAAAACAUG”, with -6.33. On to “GGCUAGAACUAGUGGAUCCCCCGGCGCCCGGCGGCUCGAGCCCGGGUAAGUUCCAGCAGUCUGCAUGCCGCCGGGCGCCAUGCCUGCAGGUCGACUCUAGAAAACAUG”, for which the binding signal (log2 enrichment (interaction score)) is -3.93.

Take “GGCUAGAACUAGUGGAUCCCCCGGCGCCCGGCGGCUCGAGCCCGGGUAAGUUAAAGACGUCUGCAUGCCGCCGGGCGCCAUGCCUGCAGGUCGACUCUAGAAAACAUG”: the binding signal (log2 enrichment (interaction score)) is -5.65. With “GGCUAGAACUAGUGGAUCCCCCGGCGCCCGGCGGCUCGAGCCCGGGUAAGGGGCAAAAGUCUGCAUGCCGCCGGGCGCCAUGCCUGCAGGUCGACUCUAGAAAACAUG”, the binding signal (log2 enrichment (interaction score)) is -6.43. Then “GGCUAGAACUAGUGGAUCCCCCGGCGCCCGGCGGCUCGAGCCCGGGUAAGUUGACAUUGUCUGCAUGCCGCCGGGCGCCAUGCCUGCAGGUCGACUCUAGAAAACAUG”, with -6.37; and “GGCUAGAACUAGUGGAUCCCCCGGCGCCCGGCGGCUCGAGCCCGGGUAAGUUAAAUGAGUCUGCAUGCCGCCGGGCGCCAUGCCUGCAGGUCGACUCUAGAAAACAUG”, with -6.52; and “GGCUAGAACUAGUGGAUCCCCCGGCGCCCGGCGGCUCGAGCCCGGGUAAGUUUAAAACGUCUGCAUGCCGCCGGGCGCCAUGCCUGCAGGUCGACUCUAGAAAACAUG”, with -5.78. As for “GGCUAGAACUAGUGGAUCCCCCGGCGCCCGGCGGCUCGAGCCCGGGUAAGGUGACUUGGUCUGCAUGCCGCCGGGCGCCAUGCCUGCAGGUCGACUCUAGAAAACAUG”, the binding signal (log2 enrichment (interaction score)) is -6.3. “GGCUAGAACUAGUGGAUCCCCCGGCGCCCGGCGGCUCGAGCCCGGGUAAGAGUGAAUAGUCUGCAUGCCGCCGGGCGCCAUGCCUGCAGGUCGACUCUAGAAAACAUG”: the binding signal (log2 enrichment (interaction score)) was -7.04. Then “GGCUAGAACUAGUGGAUCCCCCGGCGCCCGGCGGCUCGAGCCCGGGUAAGCUAGAUAAGUCUGCAUGCCGCCGGGCGCCAUGCCUGCAGGUCGACUCUAGAAAACAUG”, with -6.17; and “GGCUAGAACUAGUGGAUCCCCCGGCGCCCGGCGGCUCGAGCCCGGGUAAGUGGACAGAGUCUGCAUGCCGCCGGGCGCCAUGCCUGCAGGUCGACUCUAGAAAACAUG”, with -5.92.
